According to publication PMC12853711:
No constants are given. Whether binding was seen depends on the method and setting. In cells and extracts the contact can be indirect. These calls come from enrichment with a bait or labelling near it, and not all partners need be listed. Sequences can lack the tags named with a protein.

Amino acid sequences for entries named in this document (tags omitted).
UniProt Q99873: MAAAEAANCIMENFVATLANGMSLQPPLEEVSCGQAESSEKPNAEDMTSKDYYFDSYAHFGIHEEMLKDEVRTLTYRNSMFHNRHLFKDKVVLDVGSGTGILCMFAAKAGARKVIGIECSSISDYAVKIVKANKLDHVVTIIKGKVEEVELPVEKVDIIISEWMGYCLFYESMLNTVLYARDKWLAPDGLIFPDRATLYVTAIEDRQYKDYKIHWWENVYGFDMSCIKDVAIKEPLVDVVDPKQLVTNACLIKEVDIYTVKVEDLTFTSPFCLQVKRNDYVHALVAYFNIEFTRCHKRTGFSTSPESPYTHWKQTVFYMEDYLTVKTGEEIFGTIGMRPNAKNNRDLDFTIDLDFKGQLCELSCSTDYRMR
UniProt O14744: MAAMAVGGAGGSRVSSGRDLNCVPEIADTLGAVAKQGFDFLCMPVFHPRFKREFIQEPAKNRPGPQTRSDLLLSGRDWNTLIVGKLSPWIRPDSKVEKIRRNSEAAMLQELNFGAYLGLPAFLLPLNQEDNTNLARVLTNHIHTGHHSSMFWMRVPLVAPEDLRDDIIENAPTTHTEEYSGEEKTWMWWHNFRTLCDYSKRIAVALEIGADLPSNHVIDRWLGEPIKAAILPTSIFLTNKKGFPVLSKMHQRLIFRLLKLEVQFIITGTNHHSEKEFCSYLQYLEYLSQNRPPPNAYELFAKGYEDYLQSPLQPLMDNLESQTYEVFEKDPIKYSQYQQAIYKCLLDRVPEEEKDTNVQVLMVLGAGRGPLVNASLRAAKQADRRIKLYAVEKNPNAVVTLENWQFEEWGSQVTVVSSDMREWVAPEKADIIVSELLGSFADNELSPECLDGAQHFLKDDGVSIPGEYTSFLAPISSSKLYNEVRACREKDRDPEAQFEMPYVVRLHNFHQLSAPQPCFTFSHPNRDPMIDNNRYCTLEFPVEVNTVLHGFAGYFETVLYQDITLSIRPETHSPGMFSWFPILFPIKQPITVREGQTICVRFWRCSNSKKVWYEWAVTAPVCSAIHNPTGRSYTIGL

Target: T1, HA-tagged TRIM59 (UniProt Q8IWR1)
T1 sequence: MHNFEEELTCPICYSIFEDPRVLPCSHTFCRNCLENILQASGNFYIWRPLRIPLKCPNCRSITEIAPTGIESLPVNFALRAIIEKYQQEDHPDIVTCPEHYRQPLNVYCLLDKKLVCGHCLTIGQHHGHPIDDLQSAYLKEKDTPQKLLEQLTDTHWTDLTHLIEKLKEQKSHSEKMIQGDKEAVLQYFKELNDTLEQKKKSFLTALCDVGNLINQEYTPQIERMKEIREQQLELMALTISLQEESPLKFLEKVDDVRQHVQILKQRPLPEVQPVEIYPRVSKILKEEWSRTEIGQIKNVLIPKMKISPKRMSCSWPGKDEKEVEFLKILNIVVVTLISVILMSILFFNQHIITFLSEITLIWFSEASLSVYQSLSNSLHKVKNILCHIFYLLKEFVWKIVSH
Test: affinity purification with mass spectrometry; IP with an anti-HA antibody from SK-N-BE(2) cells stably expressing HA-TRIM59 or an empty vector, LC-MS; criterion of at least six unique peptides

Row | binding | Substance
1 | binds | PRMT1 (from UniProt Q99873 1-371) (enzyme)
2 | binds | PRMT5 (from UniProt O14744 1-637) (enzyme)
